Binding screen against folded nucleic acids

From ROBIN, a set of small-molecule microarray screens (doi:10.1002/anie.202211358).

Oligonucleotides screened, 5′ to 3′:
T1: PreQ1 riboswitch RNA pseudoknot, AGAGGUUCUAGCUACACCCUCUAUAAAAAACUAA. From B. subtilis. About 24,000 compounds screened, about 170 hits.
T2: TPP riboswitch RNA three-way junction, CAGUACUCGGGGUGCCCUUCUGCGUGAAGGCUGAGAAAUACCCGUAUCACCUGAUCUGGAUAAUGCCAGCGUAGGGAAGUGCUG. About 24,000 compounds screened, about 160 hits.
T3: SAM-II riboswitch RNA pseudoknot, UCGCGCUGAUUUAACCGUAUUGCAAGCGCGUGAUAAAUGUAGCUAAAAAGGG. About 21,000 compounds screened, about 200 hits.

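Compounds were printed on reactive glass slides in duplicate spots, a dye-labelled oligonucleotide was laid over them, and the fluorescence left after washing was read. For the PreQ1, TPP and SAM-II riboswitches the laboratory earlier reported (doi:10.1038/s41467-019-09493-3) 1 µM RNA, 2 h, and a rule that included a mean Z-score above 3 (spot signal-to-noise against the whole library), a score well above that on a control array, and duplicate spots agreeing (coefficient of variation under 100). The data file gives only the calls; its cut-offs may differ, and compounds hitting several targets are kept. These are primary screening calls, not affinities; a compound without a hit may have attached poorly or may still bind in solution.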
“active” means called a hit, “inactive” means screened and not called a hit.
This is an unselected part of the compounds tested.
A dash means that no call is listed here.

| # | compound | T1 | T2 | T3 |
|---|---|---|---|---|
| 1 | `Cc1cccc(CCNc2cc(C)nc3nc(C)nn23)c1` | inactive | inactive | inactive |
| 2 | `CC1CN(c2ccccc2)CCN1Cc1ccc(C#CCO)cc1` (stereo unspecified) | inactive | inactive | inactive |
| 3 | `CN(C)c1ccc(C(O)Cc2nc3ccccc3n2C)cc1` (stereo unspecified) | inactive | inactive | inactive |
| 4 | `CCOCCCNCc1ccc(-c2cccc(Cl)c2)o1` | inactive | inactive | - |
| 5 | `COCC(=O)N1C[C@H](N(C)C)C[C@H]1CO` | inactive | inactive | inactive |
| 6 | `O=C1NC(=O)C(c2ccccc2[N+](=O)[O-])=C1Nc1ccc(O)c(Cl)c1` | inactive | inactive | inactive |
| 7 | `COc1ccccc1OCC(O)CN1CCN(CC(=O)Nc2c(C)cccc2C)CC1` (stereo unspecified) | inactive | inactive | inactive |
| 8 | `O=C(CNCc1ccccc1)N1CCOC(C(F)(F)F)C1` (stereo unspecified) | inactive | inactive | inactive |
| 9 | `Cn1c(=O)n(C)c2cc(CNC3CCOC4(CCOCC4)C3)ccc21` (stereo unspecified) | inactive | inactive | inactive |
| 10 | `Cc1[nH]c2ccc(Cl)cc2c1CCN` | inactive | inactive | inactive |
| 11 | `Cc1nn(C)c2nc(N3CCN[C@H](C)C3)sc12` | inactive | inactive | inactive |
| 12 | `Cc1cc(C)n2nc(C(=O)N3CCC(Cc4ccc(CO)cc4)C3)cc2n1` (stereo unspecified) | inactive | inactive | inactive |
| 13 | `CCOc1ccc(CN2CCC3(CC2)C(=O)N(C)c2ccccc23)cc1CO` | inactive | inactive | inactive |
| 14 | `COc1ccc(C2C(C#N)=C(N)Oc3c2c(=O)oc2ccccc32)cc1` (stereo unspecified) | inactive | inactive | inactive |
| 15 | `O=C(NCCO)c1nnc(Cc2c(F)cccc2Cl)o1` | inactive | inactive | inactive |
| 16 | `CC(C)NC(=O)CNC(C)CCO` (stereo unspecified) | inactive | inactive | inactive |
| 17 | `CC(=O)[C@]1(O)Cc2c(O)c3c(c(O)c2[C@@H](O[C@H]2C[C@H](N)[C@@H](O)[C@H](C)O2)C1)C(=O)c1ccccc1C3=O` | inactive | inactive | inactive |
| 18 | `Nc1ccc(C(=O)N2CCCC(c3nccn3Cc3cscn3)C2)cn1` (stereo unspecified) | inactive | inactive | inactive |
| 19 | `Cc1cccc(-n2cc(CN3C[C@H](N(C)C)C[C@H]3CO)cn2)c1` | inactive | inactive | inactive |
| 20 | `OCc1ccc(-c2c(-c3ccccc3)ncn2C2COC3(CCCC3)C2)o1` (stereo unspecified) | inactive | inactive | inactive |
| 21 | `Cc1cccc(CNC(=O)N2CCC3(CCNCC3)C2)c1` | inactive | inactive | inactive |
| 22 | `Cc1cc(C)n(CCNc2cc(C3CCCNC3)nc(C)n2)c(=O)n1` (stereo unspecified) | inactive | inactive | inactive |
| 23 | `CC(=O)O[C@H]1C[C@@H]2CC[C@H]3[C@H]4C[C@H]([N+]5(C)CCCCC5)[C@@H](OC(C)=O)[C@@]4(C)CC[C@@H]3[C@@]2(C)C[C@H]1N1CCCCC1` | inactive | inactive | inactive |
| 24 | `CCOC(=O)c1ccc2nc(C(F)(F)F)nc(NCCCN3CCCC3=O)c2c1` | inactive | inactive | inactive |
| 25 | `Cc1cc2c(c(=O)o1)C(c1ccc(Cl)cc1)C(C#N)=C(N)O2` (stereo unspecified) | inactive | inactive | inactive |
| 26 | `CCOC(=O)Nc1ccc2[nH]c(-c3cscn3)nc2c1` | inactive | inactive | inactive |
| 27 | `COc1ccccc1NC(c1ccc(F)cc1)c1nnc(-c2ccccc2)o1` (stereo unspecified) | inactive | inactive | inactive |
| 28 | `O=C(NCc1cnn2ccccc12)c1cn(CCN2CCNCC2)nn1` | inactive | inactive | inactive |
| 29 | `Cn1cnc(S(=O)(=O)N2C[C@H](C3CC3)[C@@H](N)C2)c1` | inactive | inactive | inactive |
| 30 | `COc1ccc(-c2ccc(C(=O)N3C[C@H](O)[C@@H](N4CCOCC4)C3)o2)cc1` | inactive | inactive | inactive |
| 31 | `N[C@@H](Cc1ccccc1)c1nnc(SCc2cccc3ccccc23)o1` | inactive | inactive | inactive |
| 32 | `COc1cc(N(C)Cc2cc(-c3ccccc3)no2)nc(N)n1` | inactive | inactive | inactive |
| 33 | `C#CC1(OCC(O)CN2CC(C)OC(C)C2)CCCCC1.Cl` (stereo unspecified) | inactive | inactive | inactive |
| 34 | `CCOC(=O)c1cnc2c(C)cc(C)cc2c1NCCCN1CCOCC1` | inactive | inactive | inactive |
| 35 | `COc1ccc2nc(CNC(=O)c3cn([C@H]4CC[C@@H](N)CC4)nn3)[nH]c2c1` | inactive | inactive | inactive |
| 36 | `NCc1ccccc1-n1cccc1` | inactive | inactive | inactive |
| 37 | `Cc1[nH]c(C=C2C(=O)Nc3ccc(S(=O)(=O)N(C)c4cccc(Cl)c4)cc32)c(C)c1C(=O)N1CCN(C)CC1` | inactive | inactive | inactive |
| 38 | `CC(=O)Oc1ccc(OC(C)=O)c2c1CC1(C)OC1(C)C2` (stereo unspecified) | inactive | inactive | inactive |
| 39 | `O=C1C2CC=C(Cl)CC2C(=O)N1CCCCO` (stereo unspecified) | inactive | inactive | inactive |
| 40 | `O=C(CO)N1CCC2(CC1)CC(=O)N(CC=Cc1ccccc1)C2` | inactive | inactive | inactive |
| 41 | `CCCOC1CCCN(c2nc(N)nc(C)c2CCC(=O)O)C1` (stereo unspecified) | inactive | inactive | inactive |
| 42 | `Cc1cn[nH]c1` | inactive | inactive | inactive |
| 43 | `COc1ccccc1N1CCN(CC(O)COc2ccc(C34CC5CC(CC(C5)C3)C4)cc2)CC1.Cl.Cl` (stereo unspecified) | inactive | inactive | inactive |
| 44 | `Cc1ccsc1CN(Cc1c(CO)cnc(C)c1O)C1CC1` | inactive | inactive | inactive |
| 45 | `COc1cc(-c2nc3cnccn3c2Nc2ccc(F)cc2)ccc1O` | inactive | inactive | - |
| 46 | `COc1ccc(CCNC2(C#N)CCCCC2)cc1OC` | inactive | inactive | inactive |
| 47 | `O=C(O)CNc1cccc(C(=O)NCCC(=O)NC2CCCCC2)c1` | inactive | inactive | inactive |
| 48 | `O=C(C(=O)c1cccnc1)c1cccnc1` | inactive | inactive | inactive |
| 49 | `CCCNc1nc(-c2ccc(Br)cc2)cs1` | inactive | inactive | inactive |
| 50 | `CS(=O)(=O)CCNC(=O)[C@@]12CNC[C@@H]1CN(Cc1ccccc1)C2` | inactive | inactive | inactive |
| 51 | `CC(C)[C@@H]1CN(c2cc(N)nc(N)n2)C[C@H]1NS(C)(=O)=O` | inactive | inactive | inactive |
| 52 | `O=C(CSc1nc2ccccc2s1)N1CCN(CCO)CC1` | inactive | inactive | inactive |
| 53 | `c1cnc(N2CCC(NC3CCN(C4CCSCC4)CC3)CC2)nc1` | inactive | inactive | inactive |
| 54 | `CC(C)CC(O)C(=O)N1CCN(Cc2cccc(F)c2)C(=O)C1` (stereo unspecified) | inactive | inactive | inactive |
| 55 | `NCC1CCCc2c1[nH]c1ccc(Cl)cc21` (stereo unspecified) | inactive | inactive | inactive |
| 56 | `Cc1cc(C)cc(CN2CCC3(CCNCC3)C2)c1` | inactive | inactive | inactive |
| 57 | `CC(C)Nc1nc2c(-c3cccc(C(F)(F)F)c3)nnn2c2ccccc12` | inactive | inactive | inactive |
| 58 | `CC(C)C1=CC(=C2NNC(=O)N2c2ccc3c(ccn3C)c2)C(=O)C=C1O` | inactive | inactive | inactive |
| 59 | `C=CCn1cc(CNCc2ccc(F)cc2Cl)c(C)n1` | inactive | inactive | inactive |
| 60 | `SC1=NC2(CCCCCC2)NN1c1ccccc1` | inactive | inactive | inactive |
| 61 | `N#Cc1c(N)n(-c2ccc(Br)cc2)c2nc3ccccc3nc12` | inactive | inactive | inactive |
| 62 | `Oc1cccc(-c2nc3ncccn3c2Nc2ccccc2)c1` | inactive | inactive | inactive |
| 63 | `CCOc1ccc([C@@H]2C[C@H](c3cccc(Cl)c3)n3nc(N)nc3N2)cc1` | inactive | inactive | inactive |
| 64 | `COc1ccc(-c2nc(Nc3c(C)n[nH]c3C)sc2C)cc1` | inactive | inactive | inactive |
| 65 | `Cc1cc(N)n(CC(=O)N(C)C2CCCN(Cc3ccccc3F)C2)n1` (stereo unspecified) | inactive | inactive | inactive |
| 66 | `CCOC(=O)c1cnc2c(C)c(Cl)ccc2c1NCCCN1CCOCC1` | inactive | inactive | inactive |

The first 6 entries again:

compound	T1	T2	T3
Cc1cccc(CCNc2cc(C)nc3nc(C)nn23)c1	inactive	inactive	inactive
CC1CN(c2ccccc2)CCN1Cc1ccc(C#CCO)cc1 (stereo unspecified)	inactive	inactive	inactive
CN(C)c1ccc(C(O)Cc2nc3ccccc3n2C)cc1 (stereo unspecified)	inactive	inactive	inactive
CCOCCCNCc1ccc(-c2cccc(Cl)c2)o1	inactive	inactive	-
COCC(=O)N1C[C@H](N(C)C)C[C@H]1CO	inactive	inactive	inactive
O=C1NC(=O)C(c2ccccc2[N+](=O)[O-])=C1Nc1ccc(O)c(Cl)c1	inactive	inactive	inactive